Literature values, collected in patent US7232852B2, “Photopolymerizable compositions that include alicyclic/aromatic dioxiranes and novel dioxiranyl tetraoxaspiro [5.5] undecanes” (Curators of the University of Missouri, priority 2002, dated 2007).
At least one structure is not confirmed: it was looked up by name or label, or the drawing left a doubt.

Assays:
[1] = cited from earlier work
[2] = cited from earlier work; remark: listed apart in the source

For `C1CCC2OC3(OCC2C1)OCC1CCCCC1O3` (centres unmarked) [2,3,8,9-di(tetramethylene)-1,5,7,11-tetraoxaspiro[5.5]undecane], the cytotoxicity properties [1] is listed as “acceptable” and the genotoxicity properties [2] is listed as “acceptable”.
